Values from PubChem BioAssay AID1259327 (Drosophila RNAi Screening Center, 2017).
Screen: 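Data from controls in screens of zinc and manganese toxicity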. Cell system: Drosophila S2R+ cells. Reagents: long dsRNA against Drosophila genes. Duration: 5 days (water added on day 4, read one day later). Challenge: water added as vehicle, no metal, one day before read-out. Detection: 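Total ATP measured by luciferase light, scaled to plate mean, duplicates averaged, then z-scored across plates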. Direction: ATP z-score: higher = more total ATP than typical wells; ATP luminescence: higher = more total ATP. Active means: 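Called active when the ATP z-score exceeds 1.5 or falls below -1.5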. Meaning of the calls: active = hit: ATP up or down; inactive = no clear ATP change.
Shown is an unselected part of about 3,100 deposited reagents. In the full data, 378 (12%) got an active call. 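Hits include both directions; z-score sign shows ATP rise or fall; raw luminescence values are not plate-normalised.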 A plus sign joins genes that one reagent is predicted to hit. No sequences are given here. Not given: the amount of reagent.

no.	gene	dsRNA	ATP z-score, duplicate mean	ATP luminescence, replicate 1 (RLU)	ATP luminescence, replicate 2 (RLU)	activity call
1	slif	DRSC27438	-0.559	7.54e5	1.03e6	inactive
2	slif	DRSC39791	1.15	6.11e5	5.04e5	inactive
3	CG7309	DRSC03045	-0.293	7.17e5	6.74e5	inactive
4	CG7309	DRSC27252	-1.72	8.71e5	1.06e6	active
5	AQP	DRSC06122	1.69	8.97e5	6.48e5	active
6	AQP	DRSC39533	0.701	4.77e5	5.20e5	inactive
7	Orco	DRSC12358	0.421	9.93e5	9.11e5	inactive
8	Orco	DRSC27061	-0.062	7.96e5	8.87e5	inactive
9	CG31183	DRSC14403	-0.128	2.94e5	7.45e5	inactive
10	CG31183	DRSC15554	-0.517	6.24e5	6.79e5	inactive
11	CG17646	DRSC00507	1.05	5.55e5	5.50e5	inactive
12	CG17646	DRSC39859	-1.82	4.01e5	4.60e5	active
13	CngA	DRSC07362	0.222	6.03e5	6.76e5	inactive
14	Or85e	DRSC16768	0.71	3.33e5	8.33e5	inactive
15	Ir85a	DRSC14382	1.93	3.73e5	1.01e6	active
16	Ir85a	DRSC29077	-0.88	7.75e5	6.64e5	inactive
17	CG2930	DRSC17730	0.688	8.20e5	7.35e5	inactive
18	CG2930	DRSC26303	1.32	1.13e6	8.94e5	inactive

Next part, starting with the last 2 of the part before.
no.	gene	dsRNA	ATP z-score, duplicate mean	ATP luminescence, replicate 1 (RLU)	ATP luminescence, replicate 2 (RLU)	activity call
17	CG2930	DRSC17730	0.688	8.20e5	7.35e5	inactive
18	CG2930	DRSC26303	1.32	1.13e6	8.94e5	inactive
19	pain	DRSC04273	0.0332	7.29e5	7.31e5	inactive
20	pain	DRSC28351	-1.13	7.82e5	6.00e5	inactive
21	CG42638 + Trpml	DRSC11032	-1.52	5.37e5	6.02e5	active
22	CG42638 + Trpml	DRSC39630	0.321	4.50e5	5.25e5	inactive
23	cac	DRSC20354	0.437	7.50e5	7.52e5	inactive
24	cac	DRSC39146	-1.12	5.39e5	4.29e5	inactive
25	Syt1	DRSC00158	0.214	7.33e5	8.01e5	inactive
26	Syt1	DRSC00840	-0.721	4.01e5	4.58e5	inactive
27	Syt1	DRSC22077	1.09	6.63e5	6.81e5	inactive
28	Syt1	DRSC27456	-0.797	9.99e5	1.15e6	inactive
29	CG3216	DRSC04347	-0.214	7.13e5	6.94e5	inactive
30	CG3216	DRSC24945	0.288	8.80e5	8.37e5	inactive
31	CG31262	DRSC13216	-1.65	1.98e5	6.52e5	active
32	CG31262	DRSC39797	-1.23	4.03e5	3.82e5	inactive
33	RFeSP	DRSC00702	-3.07	3.96e5	3.82e5	active
34	RFeSP	DRSC27607	-2.79	4.45e5	5.08e5	active
35	S2P	DRSC07311	-0.674	5.89e5	5.28e5	inactive
36	S2P	DRSC27864	-0.626	1.07e6	8.89e5	inactive
37	CG32054	DRSC10684	0.019	9.15e5	8.83e5	inactive
38	CG32054	DRSC24449	-2.1	5.64e5	5.76e5	active
39	Gr36c	DRSC02437	-0.0256	7.63e5	6.85e5	inactive
40	Gr36c	DRSC26305	0.692	8.91e5	9.82e5	inactive
41	snky	DRSC09838	0.864	9.52e5	1.06e6	inactive
42	snky	DRSC39770	1.05	6.32e5	4.67e5	inactive
43	CG7744	DRSC07036	0.587	8.19e5	7.68e5	inactive
44	CG7744	DRSC39431	1.69	6.07e5	5.26e5	active
45	nompC	DRSC03581	0.214	7.66e5	7.32e5	inactive
46	nompC	DRSC39807	-0.551	4.69e5	4.09e5	inactive
